# Laboratory results taken from the supplement of paper PMC10849652.
# Chains of the proteins cited; added tags and fusions are not shown. Lines headed by an entry give the natural chain unless they say otherwise; changes in a name come on top.
# UniProt P08134, whole entry, looked up: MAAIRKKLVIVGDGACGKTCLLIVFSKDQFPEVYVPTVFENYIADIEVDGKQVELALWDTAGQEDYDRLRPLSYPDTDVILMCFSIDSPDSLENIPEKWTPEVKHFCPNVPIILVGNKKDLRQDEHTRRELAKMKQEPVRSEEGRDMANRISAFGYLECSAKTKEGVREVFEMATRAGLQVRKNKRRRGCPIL
# UniProt P13489: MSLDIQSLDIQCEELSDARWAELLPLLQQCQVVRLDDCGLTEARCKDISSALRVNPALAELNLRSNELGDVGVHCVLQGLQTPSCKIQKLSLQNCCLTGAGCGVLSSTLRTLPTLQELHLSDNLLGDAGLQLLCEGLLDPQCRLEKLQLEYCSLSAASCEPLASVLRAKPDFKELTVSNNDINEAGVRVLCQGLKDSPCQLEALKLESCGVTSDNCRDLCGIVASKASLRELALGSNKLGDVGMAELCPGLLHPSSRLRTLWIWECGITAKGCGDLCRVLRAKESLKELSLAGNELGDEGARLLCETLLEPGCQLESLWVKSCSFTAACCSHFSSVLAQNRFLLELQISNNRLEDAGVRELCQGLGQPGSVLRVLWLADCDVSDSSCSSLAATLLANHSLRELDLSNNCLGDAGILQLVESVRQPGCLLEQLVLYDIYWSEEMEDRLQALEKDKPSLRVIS
# UniProt Q8IUF8: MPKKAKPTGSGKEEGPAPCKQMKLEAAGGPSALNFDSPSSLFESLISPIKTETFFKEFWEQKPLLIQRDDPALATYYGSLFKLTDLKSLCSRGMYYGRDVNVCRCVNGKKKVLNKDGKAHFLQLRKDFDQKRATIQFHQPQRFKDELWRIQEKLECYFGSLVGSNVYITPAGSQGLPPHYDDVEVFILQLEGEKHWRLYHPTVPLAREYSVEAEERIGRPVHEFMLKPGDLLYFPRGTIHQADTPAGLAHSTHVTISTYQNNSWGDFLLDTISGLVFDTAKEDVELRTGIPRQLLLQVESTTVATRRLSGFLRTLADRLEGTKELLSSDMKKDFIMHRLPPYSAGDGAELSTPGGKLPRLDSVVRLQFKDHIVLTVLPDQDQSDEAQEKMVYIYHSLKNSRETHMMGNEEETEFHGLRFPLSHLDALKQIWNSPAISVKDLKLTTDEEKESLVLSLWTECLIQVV
# UniProt Q9BVS4: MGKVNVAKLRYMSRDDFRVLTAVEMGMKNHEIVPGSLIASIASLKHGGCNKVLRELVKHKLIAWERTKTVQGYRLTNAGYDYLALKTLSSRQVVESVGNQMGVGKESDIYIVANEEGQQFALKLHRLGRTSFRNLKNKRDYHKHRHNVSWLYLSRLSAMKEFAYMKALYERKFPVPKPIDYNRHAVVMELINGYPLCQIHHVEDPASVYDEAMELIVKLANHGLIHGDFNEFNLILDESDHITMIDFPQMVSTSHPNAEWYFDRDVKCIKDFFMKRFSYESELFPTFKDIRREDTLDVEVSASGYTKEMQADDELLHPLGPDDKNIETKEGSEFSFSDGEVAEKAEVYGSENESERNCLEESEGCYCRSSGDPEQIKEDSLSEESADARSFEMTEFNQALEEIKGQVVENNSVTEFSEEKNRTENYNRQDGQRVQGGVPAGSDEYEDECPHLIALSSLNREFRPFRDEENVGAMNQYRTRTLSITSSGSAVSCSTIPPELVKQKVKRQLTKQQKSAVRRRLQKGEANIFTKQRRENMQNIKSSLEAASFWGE
# UniProt O94955, whole entry, looked up: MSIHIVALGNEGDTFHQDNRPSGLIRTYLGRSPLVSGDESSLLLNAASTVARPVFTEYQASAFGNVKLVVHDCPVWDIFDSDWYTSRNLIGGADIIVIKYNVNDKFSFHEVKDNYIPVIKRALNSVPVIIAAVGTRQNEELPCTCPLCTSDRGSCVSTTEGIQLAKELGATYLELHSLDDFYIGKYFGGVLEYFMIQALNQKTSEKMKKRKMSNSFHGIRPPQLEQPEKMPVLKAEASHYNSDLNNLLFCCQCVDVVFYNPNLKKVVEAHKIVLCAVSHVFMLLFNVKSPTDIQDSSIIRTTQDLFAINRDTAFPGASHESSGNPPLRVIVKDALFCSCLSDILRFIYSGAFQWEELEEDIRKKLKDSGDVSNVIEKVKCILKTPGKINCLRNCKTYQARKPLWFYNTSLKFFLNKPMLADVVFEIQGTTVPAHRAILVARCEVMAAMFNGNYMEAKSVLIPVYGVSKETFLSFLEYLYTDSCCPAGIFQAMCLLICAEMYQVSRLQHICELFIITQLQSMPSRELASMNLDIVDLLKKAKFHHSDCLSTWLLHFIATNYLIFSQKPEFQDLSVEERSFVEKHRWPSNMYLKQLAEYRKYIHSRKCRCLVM
# UniProt Q9HCK4: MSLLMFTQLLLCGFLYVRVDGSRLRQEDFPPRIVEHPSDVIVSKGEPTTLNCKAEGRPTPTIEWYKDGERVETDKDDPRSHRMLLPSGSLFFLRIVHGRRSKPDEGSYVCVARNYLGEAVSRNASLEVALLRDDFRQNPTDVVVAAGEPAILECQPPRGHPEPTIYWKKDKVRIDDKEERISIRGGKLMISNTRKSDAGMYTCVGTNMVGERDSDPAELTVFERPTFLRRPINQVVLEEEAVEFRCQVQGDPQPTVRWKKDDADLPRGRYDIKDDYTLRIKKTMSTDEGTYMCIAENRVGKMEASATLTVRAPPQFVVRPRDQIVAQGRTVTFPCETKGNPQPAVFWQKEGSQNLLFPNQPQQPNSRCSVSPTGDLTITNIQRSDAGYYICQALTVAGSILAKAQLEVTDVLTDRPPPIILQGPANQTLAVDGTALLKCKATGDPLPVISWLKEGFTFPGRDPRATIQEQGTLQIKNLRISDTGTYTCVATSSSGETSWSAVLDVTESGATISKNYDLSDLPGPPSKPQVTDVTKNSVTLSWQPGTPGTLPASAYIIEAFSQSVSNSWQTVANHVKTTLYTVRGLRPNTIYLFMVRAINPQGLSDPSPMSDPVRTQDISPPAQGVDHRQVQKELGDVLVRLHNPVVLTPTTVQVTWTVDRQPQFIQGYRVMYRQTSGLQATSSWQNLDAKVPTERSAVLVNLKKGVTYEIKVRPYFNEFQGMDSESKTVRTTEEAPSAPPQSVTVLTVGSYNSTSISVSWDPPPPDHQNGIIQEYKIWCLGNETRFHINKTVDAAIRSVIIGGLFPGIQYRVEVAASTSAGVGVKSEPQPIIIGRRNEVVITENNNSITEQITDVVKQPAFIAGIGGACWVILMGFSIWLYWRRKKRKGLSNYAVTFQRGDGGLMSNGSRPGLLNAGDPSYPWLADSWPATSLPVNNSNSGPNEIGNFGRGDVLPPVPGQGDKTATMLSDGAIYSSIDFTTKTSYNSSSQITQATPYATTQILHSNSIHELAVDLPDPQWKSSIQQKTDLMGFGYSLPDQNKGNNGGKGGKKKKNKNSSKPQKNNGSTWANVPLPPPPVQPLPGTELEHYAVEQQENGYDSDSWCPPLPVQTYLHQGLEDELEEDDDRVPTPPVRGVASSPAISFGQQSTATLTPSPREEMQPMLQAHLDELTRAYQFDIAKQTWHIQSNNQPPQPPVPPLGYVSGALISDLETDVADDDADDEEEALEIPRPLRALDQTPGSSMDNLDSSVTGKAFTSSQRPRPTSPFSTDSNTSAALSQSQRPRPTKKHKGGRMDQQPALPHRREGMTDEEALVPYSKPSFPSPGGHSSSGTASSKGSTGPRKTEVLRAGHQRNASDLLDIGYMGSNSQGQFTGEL
# UniProt Q92834: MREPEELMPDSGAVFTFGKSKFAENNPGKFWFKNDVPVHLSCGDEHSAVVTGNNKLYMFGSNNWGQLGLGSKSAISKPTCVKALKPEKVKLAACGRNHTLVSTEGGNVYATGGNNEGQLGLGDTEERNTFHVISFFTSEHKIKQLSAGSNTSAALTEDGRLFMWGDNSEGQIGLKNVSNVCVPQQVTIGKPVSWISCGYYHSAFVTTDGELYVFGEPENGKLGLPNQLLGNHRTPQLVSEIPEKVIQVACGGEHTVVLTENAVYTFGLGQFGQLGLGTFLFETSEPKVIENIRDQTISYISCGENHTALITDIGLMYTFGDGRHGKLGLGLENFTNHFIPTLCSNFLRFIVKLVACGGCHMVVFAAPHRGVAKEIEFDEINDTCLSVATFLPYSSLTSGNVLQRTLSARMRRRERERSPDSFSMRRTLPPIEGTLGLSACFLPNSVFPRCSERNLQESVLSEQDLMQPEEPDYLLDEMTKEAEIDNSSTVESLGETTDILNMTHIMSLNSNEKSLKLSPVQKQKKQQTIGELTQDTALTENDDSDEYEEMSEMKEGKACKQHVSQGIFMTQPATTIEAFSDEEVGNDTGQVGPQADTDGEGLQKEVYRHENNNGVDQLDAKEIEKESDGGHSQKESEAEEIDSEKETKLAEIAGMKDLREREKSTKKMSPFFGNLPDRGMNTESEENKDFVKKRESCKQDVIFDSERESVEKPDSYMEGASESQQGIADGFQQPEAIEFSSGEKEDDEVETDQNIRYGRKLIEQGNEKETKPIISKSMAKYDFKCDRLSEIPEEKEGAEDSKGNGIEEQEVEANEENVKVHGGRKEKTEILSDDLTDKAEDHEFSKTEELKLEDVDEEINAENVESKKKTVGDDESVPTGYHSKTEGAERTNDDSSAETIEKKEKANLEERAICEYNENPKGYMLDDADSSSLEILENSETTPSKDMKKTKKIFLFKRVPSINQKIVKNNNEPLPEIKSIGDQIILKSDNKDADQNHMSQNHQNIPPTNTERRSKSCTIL
# The list shows a part of the results.
# What was measured:
# Experiment in all cases: log2 fold change, soluble protein after heating vs DMSO (PISA); higher = thermal stabilisation; K562 lysate, 10 uM; active = over 0.2 and 3.5 SD of the protein, either way, in both replicates (recomputed)
# erlotinib = compound: C#Cc1cccc(Nc2ncnc3cc(OCCOC)c(OCCOC)cc23)c1 [erlotinib]
# Outline: (§1)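 Values give the log-two fold change in thermal stability against solvent controls, from duplicates. Crude K562 extract at 1 mg/mL protein, made by dounce homogenisation in PBS pH 7.4 with 1 mM MgCl2, was treated with 10 μM compound for 30 min. After 3 min heating across 48°C-58°C, aliquots were pooled, adjusted to 0.5% NP-40 at 4°C and centrifuged at 21,000xg for 90 min. The supernatant was measured by TMTpro 16plex LC-MS/MS with channel sums equalised.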
# [1] = compound: C/C(=N\NC(=O)C1=CC(=CC=C1)S(=O)(=O)N2CCOCC2)/C3=C(C=CC(=C3)Cl)O
# Outline: as §1
# [2] = compound: C1=CC(=CC=C1C2=NC3=C(N2)C=C(C=C3)C(=O)N)OC4=CC=C(C=C4)Cl
# Outline: as §1
# [3] = compound: C1=CC2=C(C=CC(=C2)/C=C\3/C(=O)NC(=NCC4=CC=CS4)S3)N=C1
# Outline: as §1
# [4] = compound: C1=CC2=NC=CN=C2C=C1/C=C/3\C(=O)NC(=O)S3
# Outline: as §1
# [5] = compound: C1=CC=C(C=C1)C2=NC(=C(N2)C3=CC=NC=C3)C4=CC(=C(C=C4)Cl)O
# Outline: as §1
# [6] = compound: C1=CC=C2C(=C1)C3=NNC4=CC=CC(=C43)C2=O
# Outline: as §1
# [7] = compound: C1CCN(C1)C(=O)NC2=CC=CC(=C2)NC3=NC=C(C(=N3)NCCC4=CN=CN4)Br
# Outline: as §1
# [8] = compound: C1CN(CCC1(CC2=CC=C(C=C2)Cl)N)C3=NC=NC4=C3C=CN4
# Outline: as §1
# IRAK-1-4 Inhibitor I = compound: C1COCCN1CCN2C3=CC=CC=C3N=C2NC(=O)C4=CC(=CC=C4)[N+](=O)[O-] [IRAK-1-4 Inhibitor I]
# Outline: as §1
# ibrutinib = compound: C=CC(=O)N1CCC[C@@H](n2nc(-c3ccc(Oc4ccccc4)cc3)c3c(N)ncnc32)C1 [ibrutinib]
# Outline: as §1
# [9] = compound: CC(=O)c1cnc2ccc(-c3cc(Cl)c(O)c(Cl)c3)nc2c1N[C@H]1CC[C@H](CN(C)C)CC1
# Outline: as §1
# ralimetinib = compound: CC(C)(C)Cn1c(N)nc2ccc(-c3[nH]c(C(C)(C)C)nc3-c3ccc(F)cc3)nc21 [ralimetinib]
# Outline: as §1
# [10] = compound: CC(C)(O)CC(=O)NCCn1ccc2ncnc(Nc3ccc(Oc4cccc(C(F)(F)F)c4)c(Cl)c3)c21
# Outline: as §1
# [11] = compound: CC(C)C1=C2N=C(C=C(N2N=C1)NCC3=CC=CC=C3)NCCCCCCN
# Outline: as §1
# [12] = compound: CC1=C(C(CC(=O)N1)C2=CC=C(C=C2)C(F)(F)F)C(=O)NC3=C(C=C4C(=C3)C=NN4)F
# Outline: as §1
# [13] = compound: CC1=C(C2=C(C=C1)C(=O)C3=CC=CC=C3N2CCCN)C
# Outline: as §1
# [14] = compound: CC1=C(C=C(C=C1)NC(=O)C2=CC(=CC=C2)C(C)(C)C#N)NC3=CC4=C(C=C3)N=CN(C4=O)C
# Outline: as §1
# [15] = compound: CC1=C(C=C(C=C1)NC(=O)C2=CC(=CC=C2)N(C)C)NC(=O)C3=CC=C(C=C3)O
# Outline: as §1
# [16] = compound: CC1=CC=C(C=C1)SC2=C3C=C(SC3=CN=C2)C(=O)N
# Outline: as §1
Target,log2 fold change (erlotinib),log2 fold change [1],log2 fold change [2],log2 fold change [3],log2 fold change [4],log2 fold change [5],log2 fold change [6],log2 fold change [7],log2 fold change [8],log2 fold change (IRAK-1-4 Inhibitor I),log2 fold change (ibrutinib),log2 fold change [9],log2 fold change (ralimetinib),log2 fold change [10],log2 fold change [11],log2 fold change [12],log2 fold change [13],log2 fold change [14],log2 fold change [15],log2 fold change [16]
RHOC (UniProt P08134),inactive: -0.013,inactive: 0.025,inactive: -0.007,inactive: -0.009,inactive: 0.013,inactive: 0.01,inactive: 0.065,inactive: -0.004,inactive: -0.022,inactive: -0.002,inactive: 0.016,inactive: 0.001,inactive: 0.045,inactive: 0.094,inactive: -0.027,inactive: -0.066,inactive: 0.064,inactive: 0.009,inactive: -0.028,inactive: 0.044
RNH1 (UniProt P13489),inactive: -0.015,inactive: 0.042,inactive: 0.005,inactive: -0.031,inactive: 0.026,inactive: 0.054,inactive: -0.022,inactive: 0.024,inactive: 0,inactive: -0.013,inactive: 0.003,inactive: -0.025,inactive: -0.049,inactive: 0.035,inactive: 0.064,inactive: -0.041,inactive: 0.02,inactive: 0.115,inactive: -0.064,inactive: -0.006
RIOX2 (UniProt Q8IUF8),inactive: -0.002,inactive: 0.002,inactive: 0.032,inactive: -0.068,inactive: 0.028,inactive: 0.019,inactive: -0.078,inactive: 0,inactive: 0.067,inactive: -0.002,inactive: 0.046,inactive: 0.017,inactive: -0.03,inactive: -0.016,inactive: -0.004,inactive: -0.033,inactive: -0.012,inactive: 0.048,inactive: 0.024,inactive: 0.025
RIOK2 (UniProt Q9BVS4),inactive: -0.018,inactive: -0.045,inactive: -0.015,inactive: 0.07,inactive: 0.038,inactive: 0.029,active: 0.395,inactive: -0.01,inactive: -0.019,inactive: -0.005,inactive: -0.012,active: 0.512,inactive: 0.026,inactive: -0.014,inactive: -0.021,inactive: -0.018,inactive: -0.011,inactive: -0.016,inactive: 0.013,inactive: 0.052
RHOBTB3 (UniProt O94955),inactive: -0.014,–,inactive: 0.256,–,–,–,–,inactive: -0.211,inactive: -0.005,–,–,–,–,–,inactive: 0.029,inactive: 0.159,–,–,–,–
ROBO2 isoform 3 (UniProt Q9HCK4),inactive: 0.042,–,inactive: -0.013,–,–,inactive: 0.008,–,–,–,inactive: -0.062,–,inactive: -0.015,inactive: 0.103,inactive: -0.287,inactive: -0.045,–,–,inactive: 0.022,inactive: 0.177,inactive: -0.053
RPGR (UniProt Q92834),–,–,–,–,inactive: -0.105,–,–,–,–,–,inactive: 0.046,–,–,–,–,–,–,inactive: -0.048,–,–
